Results from the supplement of paper PMC10849652.
The other results are listed elsewhere or left out.

Chains of the proteins cited; added tags and fusions are not shown. Lines headed by an entry give the natural chain unless they say otherwise; changes in a name come on top.
UniProt Q9Y230, whole entry, looked up: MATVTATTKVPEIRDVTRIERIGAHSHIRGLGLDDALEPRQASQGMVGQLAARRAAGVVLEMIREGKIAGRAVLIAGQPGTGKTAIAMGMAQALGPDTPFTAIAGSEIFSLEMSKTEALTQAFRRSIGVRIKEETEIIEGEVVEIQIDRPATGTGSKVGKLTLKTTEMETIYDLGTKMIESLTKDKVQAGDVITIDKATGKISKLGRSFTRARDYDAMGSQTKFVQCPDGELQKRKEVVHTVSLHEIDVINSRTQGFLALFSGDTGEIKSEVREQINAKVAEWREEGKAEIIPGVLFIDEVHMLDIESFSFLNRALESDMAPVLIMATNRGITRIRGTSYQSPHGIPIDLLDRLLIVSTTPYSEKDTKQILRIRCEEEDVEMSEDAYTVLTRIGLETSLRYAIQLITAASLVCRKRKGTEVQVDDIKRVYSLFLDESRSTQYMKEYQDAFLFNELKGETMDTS
UniProt Q9BUL9: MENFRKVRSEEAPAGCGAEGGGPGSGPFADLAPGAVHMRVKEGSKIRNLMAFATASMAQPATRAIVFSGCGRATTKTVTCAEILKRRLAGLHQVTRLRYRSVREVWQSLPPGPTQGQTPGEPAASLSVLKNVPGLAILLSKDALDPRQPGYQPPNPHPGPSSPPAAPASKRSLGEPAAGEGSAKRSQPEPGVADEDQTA
UniProt Q9HB90, whole entry, looked up: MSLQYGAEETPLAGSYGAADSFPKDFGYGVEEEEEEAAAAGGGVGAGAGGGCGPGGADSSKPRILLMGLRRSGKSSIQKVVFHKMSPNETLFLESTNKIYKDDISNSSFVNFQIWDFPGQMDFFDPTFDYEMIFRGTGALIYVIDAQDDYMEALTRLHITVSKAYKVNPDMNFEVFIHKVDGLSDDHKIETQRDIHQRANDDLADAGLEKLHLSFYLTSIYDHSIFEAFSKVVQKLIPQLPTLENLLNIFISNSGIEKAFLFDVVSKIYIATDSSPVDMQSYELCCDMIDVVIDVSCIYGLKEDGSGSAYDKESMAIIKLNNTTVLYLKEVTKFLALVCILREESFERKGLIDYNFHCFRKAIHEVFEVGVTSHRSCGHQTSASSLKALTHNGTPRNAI
UniProt Q5VWQ0: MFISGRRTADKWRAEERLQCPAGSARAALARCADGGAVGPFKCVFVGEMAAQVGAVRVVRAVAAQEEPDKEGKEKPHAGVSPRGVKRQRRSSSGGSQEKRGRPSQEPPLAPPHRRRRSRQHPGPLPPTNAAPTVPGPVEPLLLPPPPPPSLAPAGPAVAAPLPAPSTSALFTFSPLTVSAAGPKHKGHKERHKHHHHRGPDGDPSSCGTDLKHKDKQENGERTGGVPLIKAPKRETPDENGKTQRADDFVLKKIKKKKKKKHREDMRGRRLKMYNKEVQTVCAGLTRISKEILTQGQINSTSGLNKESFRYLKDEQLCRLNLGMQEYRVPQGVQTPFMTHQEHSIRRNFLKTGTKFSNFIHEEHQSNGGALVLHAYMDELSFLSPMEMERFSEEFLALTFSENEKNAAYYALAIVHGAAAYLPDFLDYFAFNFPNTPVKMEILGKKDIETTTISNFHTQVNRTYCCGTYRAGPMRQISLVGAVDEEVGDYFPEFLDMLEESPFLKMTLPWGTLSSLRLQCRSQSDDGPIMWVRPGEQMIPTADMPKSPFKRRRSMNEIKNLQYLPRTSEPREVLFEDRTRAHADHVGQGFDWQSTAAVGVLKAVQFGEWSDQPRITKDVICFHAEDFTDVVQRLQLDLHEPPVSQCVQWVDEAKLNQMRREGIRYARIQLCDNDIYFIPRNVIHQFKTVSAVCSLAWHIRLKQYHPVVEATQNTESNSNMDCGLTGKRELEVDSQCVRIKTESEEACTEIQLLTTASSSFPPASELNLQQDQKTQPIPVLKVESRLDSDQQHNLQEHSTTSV
UniProt O75298: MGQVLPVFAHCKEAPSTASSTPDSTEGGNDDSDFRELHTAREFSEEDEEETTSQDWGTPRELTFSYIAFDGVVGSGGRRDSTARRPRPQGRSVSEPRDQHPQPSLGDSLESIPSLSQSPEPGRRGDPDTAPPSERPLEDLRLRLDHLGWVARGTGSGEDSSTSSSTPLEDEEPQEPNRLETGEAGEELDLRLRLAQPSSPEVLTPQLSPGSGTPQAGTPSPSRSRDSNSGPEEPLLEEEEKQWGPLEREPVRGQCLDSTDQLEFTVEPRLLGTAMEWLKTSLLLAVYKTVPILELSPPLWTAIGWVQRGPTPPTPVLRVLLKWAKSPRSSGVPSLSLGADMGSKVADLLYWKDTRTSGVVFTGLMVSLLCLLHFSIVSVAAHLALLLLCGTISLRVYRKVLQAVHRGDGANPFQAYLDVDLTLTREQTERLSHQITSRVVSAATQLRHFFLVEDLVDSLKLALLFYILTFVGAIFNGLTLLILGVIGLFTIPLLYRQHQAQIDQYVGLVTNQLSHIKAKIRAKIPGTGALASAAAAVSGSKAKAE
UniProt P57060: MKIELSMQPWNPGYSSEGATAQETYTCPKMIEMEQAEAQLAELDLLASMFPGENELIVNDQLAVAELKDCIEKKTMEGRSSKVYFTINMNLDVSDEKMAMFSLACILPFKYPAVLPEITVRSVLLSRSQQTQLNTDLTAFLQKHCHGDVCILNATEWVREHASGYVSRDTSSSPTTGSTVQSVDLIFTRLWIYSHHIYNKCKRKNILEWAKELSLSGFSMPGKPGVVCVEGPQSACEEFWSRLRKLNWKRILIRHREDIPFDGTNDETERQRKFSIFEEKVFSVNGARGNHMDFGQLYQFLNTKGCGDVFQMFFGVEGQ
UniProt Q9Y265, whole entry, looked up: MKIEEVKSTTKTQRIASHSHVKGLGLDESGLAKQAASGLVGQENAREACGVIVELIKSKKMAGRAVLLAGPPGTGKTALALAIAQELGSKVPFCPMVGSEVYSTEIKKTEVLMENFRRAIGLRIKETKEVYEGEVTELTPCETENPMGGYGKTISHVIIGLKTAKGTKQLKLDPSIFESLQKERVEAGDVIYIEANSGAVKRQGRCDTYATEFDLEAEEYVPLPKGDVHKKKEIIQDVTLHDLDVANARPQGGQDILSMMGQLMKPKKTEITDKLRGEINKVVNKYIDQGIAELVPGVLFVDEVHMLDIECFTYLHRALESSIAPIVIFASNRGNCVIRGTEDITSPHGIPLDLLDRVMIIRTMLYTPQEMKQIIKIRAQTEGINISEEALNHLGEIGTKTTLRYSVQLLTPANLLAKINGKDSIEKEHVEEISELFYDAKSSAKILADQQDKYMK
UniProt Q9Y224: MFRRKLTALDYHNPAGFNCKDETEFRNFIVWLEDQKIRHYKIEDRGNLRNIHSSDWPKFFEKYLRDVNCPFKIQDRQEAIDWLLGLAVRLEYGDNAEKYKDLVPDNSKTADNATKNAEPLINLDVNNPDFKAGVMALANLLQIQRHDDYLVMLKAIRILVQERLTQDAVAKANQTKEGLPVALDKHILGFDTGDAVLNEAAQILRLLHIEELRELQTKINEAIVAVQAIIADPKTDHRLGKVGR
UniProt Q9HA92: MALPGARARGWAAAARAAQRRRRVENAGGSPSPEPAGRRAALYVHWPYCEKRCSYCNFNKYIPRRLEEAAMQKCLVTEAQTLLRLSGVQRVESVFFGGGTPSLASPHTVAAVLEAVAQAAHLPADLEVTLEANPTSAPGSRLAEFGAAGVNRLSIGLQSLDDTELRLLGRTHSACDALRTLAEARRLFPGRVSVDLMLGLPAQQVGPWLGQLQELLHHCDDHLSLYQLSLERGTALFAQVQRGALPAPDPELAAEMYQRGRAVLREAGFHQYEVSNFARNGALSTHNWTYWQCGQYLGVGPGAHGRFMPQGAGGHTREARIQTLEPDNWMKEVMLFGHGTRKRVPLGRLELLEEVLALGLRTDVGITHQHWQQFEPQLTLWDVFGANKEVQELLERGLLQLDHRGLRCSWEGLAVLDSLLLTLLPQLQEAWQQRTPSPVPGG
UniProt P31350, whole entry, looked up: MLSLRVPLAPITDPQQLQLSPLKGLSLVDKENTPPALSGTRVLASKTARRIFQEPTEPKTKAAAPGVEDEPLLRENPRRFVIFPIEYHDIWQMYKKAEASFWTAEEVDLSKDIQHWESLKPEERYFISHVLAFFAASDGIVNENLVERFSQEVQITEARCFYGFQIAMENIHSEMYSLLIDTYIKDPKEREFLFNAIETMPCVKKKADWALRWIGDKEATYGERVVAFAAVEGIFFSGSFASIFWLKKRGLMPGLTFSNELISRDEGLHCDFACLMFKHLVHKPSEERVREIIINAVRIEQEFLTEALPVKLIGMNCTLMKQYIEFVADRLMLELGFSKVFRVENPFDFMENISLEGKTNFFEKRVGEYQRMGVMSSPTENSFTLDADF
UniProt P29034: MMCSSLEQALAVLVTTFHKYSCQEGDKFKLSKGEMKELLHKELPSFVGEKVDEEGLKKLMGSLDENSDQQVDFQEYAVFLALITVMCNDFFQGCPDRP
UniProt Q9H446: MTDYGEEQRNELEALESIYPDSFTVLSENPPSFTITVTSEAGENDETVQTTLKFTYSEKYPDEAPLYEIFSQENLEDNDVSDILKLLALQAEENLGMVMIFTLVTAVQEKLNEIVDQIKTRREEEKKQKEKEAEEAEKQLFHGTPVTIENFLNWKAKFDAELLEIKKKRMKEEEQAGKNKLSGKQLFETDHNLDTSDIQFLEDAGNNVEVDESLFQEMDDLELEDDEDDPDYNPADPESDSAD
UniProt Q9Y3A4: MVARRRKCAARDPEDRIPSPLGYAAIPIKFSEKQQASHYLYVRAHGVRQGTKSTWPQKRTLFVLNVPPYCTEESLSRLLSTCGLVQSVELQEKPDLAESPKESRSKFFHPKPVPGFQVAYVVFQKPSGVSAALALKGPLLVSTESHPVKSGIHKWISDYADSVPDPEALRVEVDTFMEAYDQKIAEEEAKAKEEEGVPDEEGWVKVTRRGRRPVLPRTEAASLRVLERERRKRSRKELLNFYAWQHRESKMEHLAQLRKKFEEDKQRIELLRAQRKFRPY
UniProt Q15404: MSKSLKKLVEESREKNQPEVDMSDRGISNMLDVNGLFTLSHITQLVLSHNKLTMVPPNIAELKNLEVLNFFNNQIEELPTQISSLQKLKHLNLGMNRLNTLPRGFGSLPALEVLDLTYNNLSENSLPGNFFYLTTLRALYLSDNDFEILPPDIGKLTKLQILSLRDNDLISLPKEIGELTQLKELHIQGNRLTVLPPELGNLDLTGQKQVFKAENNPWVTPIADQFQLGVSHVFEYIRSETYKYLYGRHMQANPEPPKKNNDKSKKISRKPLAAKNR
UniProt Q9P2E9: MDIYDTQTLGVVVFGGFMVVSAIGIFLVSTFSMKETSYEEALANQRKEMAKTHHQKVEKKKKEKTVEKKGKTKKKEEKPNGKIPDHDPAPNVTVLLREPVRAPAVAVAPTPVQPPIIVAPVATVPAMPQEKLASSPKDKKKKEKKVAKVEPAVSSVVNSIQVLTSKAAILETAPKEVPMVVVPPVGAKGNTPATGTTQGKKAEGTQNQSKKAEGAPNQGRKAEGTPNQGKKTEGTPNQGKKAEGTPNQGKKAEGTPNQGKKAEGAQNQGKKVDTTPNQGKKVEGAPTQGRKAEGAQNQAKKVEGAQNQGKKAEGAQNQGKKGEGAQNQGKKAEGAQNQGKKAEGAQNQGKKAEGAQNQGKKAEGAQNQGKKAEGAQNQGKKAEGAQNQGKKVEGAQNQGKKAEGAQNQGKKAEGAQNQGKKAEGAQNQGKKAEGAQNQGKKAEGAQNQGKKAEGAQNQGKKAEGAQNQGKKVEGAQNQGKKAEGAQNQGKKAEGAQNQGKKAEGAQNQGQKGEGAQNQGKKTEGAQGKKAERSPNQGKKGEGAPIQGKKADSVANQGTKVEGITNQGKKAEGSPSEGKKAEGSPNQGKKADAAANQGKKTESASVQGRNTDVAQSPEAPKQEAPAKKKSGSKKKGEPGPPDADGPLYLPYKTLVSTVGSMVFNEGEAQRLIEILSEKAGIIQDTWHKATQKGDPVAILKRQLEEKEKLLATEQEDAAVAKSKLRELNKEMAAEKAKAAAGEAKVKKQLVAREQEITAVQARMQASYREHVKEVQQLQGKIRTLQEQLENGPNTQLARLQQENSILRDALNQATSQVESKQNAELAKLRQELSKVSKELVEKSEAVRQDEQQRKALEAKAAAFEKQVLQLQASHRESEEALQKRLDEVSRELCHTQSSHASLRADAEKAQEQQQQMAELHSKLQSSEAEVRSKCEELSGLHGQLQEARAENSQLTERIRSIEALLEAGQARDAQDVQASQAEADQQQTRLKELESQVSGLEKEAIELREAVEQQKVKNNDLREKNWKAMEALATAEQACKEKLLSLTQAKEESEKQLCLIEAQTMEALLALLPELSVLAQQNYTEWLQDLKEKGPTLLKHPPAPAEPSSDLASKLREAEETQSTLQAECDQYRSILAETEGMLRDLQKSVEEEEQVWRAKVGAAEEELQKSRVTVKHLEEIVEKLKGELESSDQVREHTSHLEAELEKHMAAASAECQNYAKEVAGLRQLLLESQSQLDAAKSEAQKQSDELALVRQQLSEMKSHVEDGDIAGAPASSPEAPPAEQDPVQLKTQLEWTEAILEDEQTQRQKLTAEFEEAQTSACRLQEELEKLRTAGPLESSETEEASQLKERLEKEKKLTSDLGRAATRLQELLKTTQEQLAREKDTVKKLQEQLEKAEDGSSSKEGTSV

Columns and labels:
Experiment in all cases: log2 fold change, soluble protein after heating vs DMSO (PISA); higher = thermal stabilisation; K562 lysate, 10 uM; active = over 0.2 and 3.5 SD of the protein, either way, in both replicates (recomputed)
[1] = compound: C#Cc1cccc(Nc2ncnc3cc(OCCOC)c(OCCOC)cc23)c1 [erlotinib]
Outline: (§1)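 Following dounce homogenisation of K562 pellets in PBS pH 7.4 with 1 mM MgCl2, crude extract at 1 mg/mL protein was incubated for 30 min with 10 μM compound. Aliquots were then heated for 3 min over 48°C-58°C and pooled, NP-40 was added to 0.5% at 4°C, and soluble protein was recovered as the supernatant at 21,000xg for 90 min. Channel-sum-equalised TMTpro 16plex LC-MS/MS quantified this protein. Each value, from duplicates, is a log-two fold change in thermal stability relative to solvent controls.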

[2] = compound: C/C(=N\NC(=O)C1=CC(=CC=C1)S(=O)(=O)N2CCOCC2)/C3=C(C=CC(=C3)Cl)O
Outline: as §1

[3] = compound: C1=CC(=CC=C1C2=NC3=C(N2)C=C(C=C3)C(=O)N)OC4=CC=C(C=C4)Cl
Outline: as §1

[4] = compound: C1=CC2=C(C=CC(=C2)/C=C\3/C(=O)NC(=NCC4=CC=CS4)S3)N=C1
Outline: as §1

[5] = compound: C1=CC2=NC=CN=C2C=C1/C=C/3\C(=O)NC(=O)S3
Outline: as §1

[6] = compound: C1=CC=C(C=C1)C2=NC(=C(N2)C3=CC=NC=C3)C4=CC(=C(C=C4)Cl)O
Outline: as §1

[7] = compound: C1=CC=C2C(=C1)C3=NNC4=CC=CC(=C43)C2=O
Outline: as §1

[8] = compound: C1CCN(C1)C(=O)NC2=CC=CC(=C2)NC3=NC=C(C(=N3)NCCC4=CN=CN4)Br
Outline: as §1

[9] = compound: C1CN(CCC1(CC2=CC=C(C=C2)Cl)N)C3=NC=NC4=C3C=CN4
Outline: as §1

[10] = compound: C1COCCN1CCN2C3=CC=CC=C3N=C2NC(=O)C4=CC(=CC=C4)[N+](=O)[O-] [IRAK-1-4 Inhibitor I]
Outline: as §1

Measured: log2 fold change

RUVBL2 (UniProt Q9Y230)
inactive: [1] -0.026 | [2] -0.045 | [3] 0.003 | [4] -0.009 | [5] 0.002 | [6] 0.008 | [7] -0.008 | [8] 0.029 | [9] 0.014 | [10] 0.013

RPL6 (UniProt Q02878)
inactive: [1] 0 | [2] -0.012 | [3] -0.038 | [4] -0.011 | [5] -0.014 | [6] 0.021 | [7] 0.055 | [8] 0.055 | [9] -0.011 | [10] 0.006

RSRC2 (UniProt Q7L4I2)
inactive: [1] -0.093 | [2] 0.061 | [3] 0.031 | [4] 0.032 | [5] -0.029 | [6] 0.022 | [7] -0.005 | [8] -0.015 | [9] -0.02 | [10] -0.048

RPP25 (UniProt Q9BUL9)
inactive: [1] -0.112 | [2] -0.066 | [3] -0.026 | [4] -0.017 | [5] 0.007 | [6] 0.07 | [7] 0.023 | [8] 0.109 | [9] -0.006 | [10] -0.03

RPL39P5 (UniProt Q59GN2)
inactive: [1] 0.065 | [2] -1.4 | [3] 0.027 | [4] 0.024 | [5] -0.012 | [6] -0.001 | [7] 0.023 | [8] 0.042 | [9] 0.009 | [10] 0.01

RRP1 (UniProt P56182)
inactive: [1] 0.05 | [2] 0.031 | [3] -0.094 | [4] -0.042 | [5] 0.042 | [6] -0.009 | [7] 0.029 | [8] 0.021 | [9] 0.01 | [10] -0.049

RRAGC (UniProt Q9HB90)
inactive: [1] -0.017 | [2] -0.062 | [3] 0.028 | [4] 0.007 | [5] -0.014 | [6] -0.032 | [7] -0.018 | [8] 0.011 | [9] -0.004 | [10] 0.066

RPS9 (UniProt P46781)
inactive: [1] -0.034 | [2] 0.022 | [3] -0.03 | [4] -0.054 | [5] -0.016 | [6] -0.011 | [7] 0.011 | [8] 0.025 | [9] -0.018 | [10] -0.017

RPS27A (UniProt P62979)
inactive: [1] 0.031 | [2] -0.317 | [3] 0.035 | [4] -0.059 | [5] -0.023 | [6] 0.011 | [7] -0.068 | [8] -0.006 | [9] -0.019 | [10] 0.017

RPS4X (UniProt P62701)
inactive: [1] -0.016 | [2] 0.014 | [3] -0.012 | [4] -0.012 | [5] -0.018 | [6] -0.002 | [7] -0.005 | [8] 0.017 | [9] 0.004 | [10] 0.03

RSBN1 (UniProt Q5VWQ0)
inactive: [1] -0.021 | [2] -0.06 | [3] -0.01 | [4] 0 | [5] -0.005 | [6] 0.025 | [7] 0.023 | [8] -0.017 | [9] -0.012 | [10] -0.002

RPL38 (UniProt P63173)
inactive: [1] -0.014 | [2] -0.013 | [3] 0.009 | [4] -0.025 | [5] -0.048 | [6] -0.03 | [7] -0.042 | [8] -0.015 | [9] -0.026 | [10] 0.021

RPP40 (UniProt O75818)
inactive: [1] -0.023 | [2] -0.019 | [3] -0.03 | [4] 0.025 | [5] -0.043 | [6] 0.017 | [7] 0.035 | [8] 0.059 | [9] -0.031 | [10] -0.01

RPN2 (UniProt P04844)
inactive: [1] 0 | [2] 0.014 | [3] -0.055 | [4] 0.022 | [5] 0.021 | [6] 0 | [7] -0.049 | [8] -0.007 | [9] 0.006 | [10] 0.007

RPS12 (UniProt P25398)
inactive: [1] 0.033 | [2] 0.02 | [3] -0.009 | [4] -0.022 | [5] -0.007 | [6] 0.038 | [7] 0.025 | [8] 0.044 | [9] 0.016 | [10] -0.001

RTN2 (UniProt O75298)
inactive: [1] -0.08 | [2] 0.025 | [3] -0.129 | [4] -0.026 | [5] 0.026 | [6] -0.047 | [7] 0.035 | [8] -0.008 | [9] 0 | [10] 0.071

RWDD2B (UniProt P57060)
inactive: [1] -0.037 | [2] 0.008 | [3] 0.051 | [4] -0.018 | [5] 0.04 | [6] 0 | [7] -0.089 | [8] 0.04 | [9] 0.056 | [10] -0.026

RPS15A (UniProt P62244)
inactive: [1] -0.01 | [2] -0.121 | [3] 0.004 | [4] 0.007 | [5] -0.007 | [6] -0.023 | [7] -0.007 | [8] 0.002 | [9] -0.008 | [10] -0.001

RUVBL1 (UniProt Q9Y265)
inactive: [1] -0.015 | [2] -0.09 | [3] 0.016 | [4] -0.018 | [5] 0 | [6] 0.01 | [7] 0.019 | [8] 0.004 | [9] 0.001 | [10] 0.016

RSL1D1 (UniProt O76021)
inactive: [1] -0.017 | [2] -0.039 | [3] -0.019 | [4] 0.008 | [5] -0.01 | [6] 0.017 | [7] 0.034 | [8] 0.05 | [9] -0.012 | [10] -0.021

RTRAF (UniProt Q9Y224)
inactive: [1] 0.012 | [2] 0.095 | [3] 0.006 | [4] -0.002 | [5] 0.031 | [6] -0.001 | [7] -0.027 | [8] 0.022 | [9] 0.017 | [10] -0.023

RSAD1 (UniProt Q9HA92)
inactive: [1] 0.051 | [2] -0.029 | [3] 0.118 | [4] -0.025 | [5] -0.001 | [6] -0.016 | [7] -0.098 | [8] -0.081 | [9] 0.23 | [10] 0.002

RRM2 isoform 2 (UniProt P31350)
inactive: [1] -0.047 | [2] -0.015 | [3] -0.018 | [4] -0.004 | [5] -0.002 | [6] 0.005 | [7] 0.037 | [8] -0.026 | [9] -0.038 | [10] -0.012

Quoted from the listing (2 entries):
RTRAF (UniProt Q9Y224)
inactive: [1] 0.012 | [2] 0.095 | [3] 0.006 | [4] -0.002 | [5] 0.031 | [6] -0.001 | [7] -0.027 | [8] 0.022 | [9] 0.017 | [10] -0.023

RSAD1 (UniProt Q9HA92)
inactive: [1] 0.051 | [2] -0.029 | [3] 0.118 | [4] -0.025 | [5] -0.001 | [6] -0.016 | [7] -0.098 | [8] -0.081 | [9] 0.23 | [10] 0.002

Additional records.

RPS3A (UniProt P61247)
inactive: [1] -0.051 | [2] 0.034 | [3] -0.022 | [4] -0.016 | [5] -0.004 | [6] -0.007 | [7] 0.044 | [8] 0.026 | [9] -0.038 | [10] -0.021

S100A2 (UniProt P29034)
inactive: [1] 0.168 | [2] -0.022 | [3] 0.223 | [4] -0.173 | [5] 0.036 | [6] -0.246 | [7] -0.195 | [8] -0.028 | [9] 0.036 | [10] 0.17

RWDD1 (UniProt Q9H446)
inactive: [1] -0.015 | [2] 0.007 | [3] 0.015 | [4] 0.003 | [5] -0.033 | [6] 0.01 | [7] 0.061 | [8] -0.017 | [9] -0.032 | [10] 0.003

RRP7A (UniProt Q9Y3A4)
inactive: [1] 0.038 | [2] 0 | [3] 0.035 | [4] -0.02 | [5] 0.038 | [6] 0.011 | [7] -0.072 | [8] 0.022 | [9] 0.04 | [10] 0.005

RSU1 (UniProt Q15404)
inactive: [1] 0.017 | [2] 0.006 | [3] -0.039 | [4] -0.052 | [5] -0.011 | [6] -0.003 | [7] 0.017 | [8] 0.009 | [9] -0.027 | [10] 0

RPS2 (UniProt P15880)
inactive: [1] 0.008 | [2] -0.032 | [3] -0.006 | [4] 0.003 | [5] -0.019 | [6] -0.004 | [7] 0.036 | [8] 0.002 | [9] -0.016 | [10] -0.005

RRBP1 isoform 3 (UniProt Q9P2E9)
inactive: [1] -0.072 | [2] -0.056 | [3] 0.009 | [4] -0.116 | [5] -0.166 | [6] 0.047 | [7] 0.006 | [8] -0.014 | [9] 0.064 | [10] 0.011
